# Reference: PubChem BioAssay AID445 (National Center for Advancing Translational Sciences (NCATS), 2006)
# Some of the results follow. Further columns of the screen follow, without active or inactive calls. Compounds called inactive in the main read-out are mostly missing here. Words in brackets tell the shape of the fitted curve; partial curves, single points and poor fits give uncertain potencies.
# Assay: IkB Signaling
# Settings: ABC-DLBCL IkBa-CBG/CBR dual luciferase ratio (green luciferase fused to IkBa over red control in OCI-Ly3 lymphoma cells), 4 h
# How it was run: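 In this assay, an IκBα–CBG68 fusion accumulates when IKK-driven degradation is blocked; native CBR normalizes for cell number. OCI-Ly3 cells were treated 4 h with compound and doxycycline, then green and red light read after Chroma-Glo addition.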
# [1] = measured here: control luc red channel unless noted
# [2] = measured here: IkB-luc green channel
# [3] = measured here: control luc red channel
compound,measurement,setting,value
COc1ccccc1NC(=O)c1sc2ncn(Cc3ccccc3Cl)c(=O)c2c1C,AC50,[1],"3.98 µM [rising, single point]"
O=C(Nc1ccc(CN2CCOCC2)cc1)c1ccc(-c2ccc(Br)cc2)o1,AC50,[1],"6.31 µM [falling, full curve]"
COc1cccc(CN2C(=O)CN(C3CCCCC3)C(=O)C2c2ccc(OC)c(OC)c2)c1 (centres undefined),AC50,[1],"0.0316 µM [rising, full curve]"
CCC(C)Sc1c(C(C)C)cnc2c1c(=O)n(C)c(=O)n2C (centres undefined),AC50,[1],"0.0251 µM [falling, full curve]"
COc1ccc(-n2c(/C=C/c3c(C)[nH]c4ccccc34)nc3ccccc3c2=O)cc1,AC50,[1],"15.8 µM [falling, single point]"
COc1ccccc1C(=O)Nc1ccc(OCc2cc(=O)n3ccc(C)cc3n2)cc1,AC50,[1],"1 µM [falling, full curve, poor fit]"
CC1=C(C(=O)OC(C)C)C(C)C(C(=O)OC(C)C)=C(C)N1,AC50,[1],"20 µM [falling, partial curve]"
COc1ccc(C(=O)Oc2cc(-c3ccc4c(c3)OCO4)cc(=O)c3c(C)oc(C)c23)cc1,AC50,[1],"39.8 µM [rising, partial curve]"
Cc1ccc(Cl)cc1NC(=O)CSc1nc2c(c(=O)[nH]1)CN(Cc1ccccc1)CC2,AC50,[1],"25.1 µM [falling, single point]"
CCOC(=O)c1cccc(NC(=O)CSc2nnc(-c3ccoc3C)n2CCOC)c1,AC50,[1],"25.1 µM [falling, partial curve]"
Cc1ccccc1C(=O)Nc1ccc(C(=O)OCc2cc(=O)n3nc(C(C)C)sc3n2)cc1,AC50,[1],"12.6 µM [falling, partial curve]"
COC(=O)c1cccc(Nc2nn3c(=O)c4cc5c(cc4nc3s2)OCO5)c1,AC50,[1],"0.00631 µM [falling, full curve, poor fit]"
COc1ccc(-c2[nH]c3ccccc3c2SCCNC(=O)c2ccc(S(=O)(=O)N(C)C)cc2)cc1,AC50,[1],"1.26 µM [falling, full curve]"
COC(=O)Nc1nc2ccc(Sc3ccccc3)cc2[nH]1,AC50,[2],"0.631 µM [rising, full curve]"
same,AC50,[3],"0.794 µM [rising, full curve]"
O=C(CSC1=Nc2ccccc2N=C(c2ccc(F)cc2)C1)NCc1ccccc1Cl,AC50,[1],"12.6 µM [falling, partial curve, poor fit]"
CCOc1ccc(CNC(=O)c2sc3ncnc(N(C)C4CCCCC4)c3c2C)cc1,AC50,[1],"39.8 µM [falling, single point]"
NC(=O)c1ccccc1NC(=O)Cn1nc(Cc2cccnc2)c2ccccc2c1=O,AC50,[1],"25.1 µM [falling, single point]"
COCCN1Cc2cccc(C(=O)Nc3ccc(C)cc3C)c2C1=O,AC50,[1],"10 µM [falling, partial curve]"
CCN(C(=O)C1CCN(S(=O)(=O)c2ccc3c(c2)CCCN3C(=O)C2CCC2)CC1)c1cccc(C)c1,AC50,[1],"39.8 µM [falling, partial curve, poor fit]"
Cc1c(C(=O)NCc2ccc(N(C)C)cc2)oc2c1-c1nn(Cc3cccc(Cl)c3)cc1CC2,AC50,[1],"15.8 µM [falling, partial curve]"
COc1ccc(-c2nc(-c3ccccc3)c(-c3ccccc3)[nH]2)cc1Br,AC50,[1],"3.16 µM [falling, full curve]"
Oc1c(I)cc(Cl)c2cccnc12,AC50,[1],"316 nM [rising, full curve, poor fit] [measured here: IkB-luc green channel]"
CCCC12CN3CC(CCC)(CN(C1)C3c1c[nH]c3ccccc13)C2=O (centres undefined),AC50,[1],"10 µM [falling, partial curve]"
COc1ccc2c(=O)cc(-c3ccncc3)oc2c1OC,AC50,[1],"3.98 µM [falling, partial curve]"
COc1ccc(CCNC(=O)c2cc(-c3ccccc3)nc3ccccc23)cc1OC,AC50,[1],"25.1 µM [falling, partial curve]"
CCn1cc(C(=O)OCC(=O)Nc2cc(C)cc(C)c2)c(=O)c2ccc(C)nc21,AC50,[1],"3.16 µM [rising, full curve, poor fit]"
O=C(CSc1nc2ccccc2c(=O)n1CCC(=O)NC1CCCCC1)Nc1ccccc1Cl,AC50,[1],"3.16 µM [rising, single point]"
Cc1nn(CCCC(=O)NCc2ccccc2)c(=O)c2nn(-c3ccccc3)c(C)c12,AC50,[1],"12.6 µM [falling, single point]"
CC(C)c1nnc(N2C(=O)c3oc4ccccc4c(=O)c3C2c2cccc(O)c2)s1 (centres undefined),AC50,[1],"20 µM [falling, single point]"
O=C(CSc1cn(CC(=O)N2CCCCCC2)c2ccccc12)Nc1ccccc1F,AC50,[1],"20 µM [falling, partial curve]"
CCc1nnc2c(NCc3ccccc3OC)nc3ccccc3n12,AC50,[1],"7.94 µM [falling, full curve]"
CCOc1ccc(CC(=O)Nc2nnc3n2CCS3)cc1,AC50,[1],"1 µM [rising, full curve, poor fit]"
COc1ccc(C(=O)c2cn(Cc3ccc(C)cc3)c3cc4c(cc3c2=O)OCO4)cc1,AC50,[1],"3.98 µM [falling, single point]"
COc1ccc2nc(N3CCCC(O)C3)c(C#N)cc2c1 (centres undefined),AC50,[2],"39.8 µM [rising, single point]"
same,AC50,[3],"20 µM [rising, partial curve]"
COc1cc(NC(=O)CCS(=O)(=O)c2nc(-c3cccs3)cc(C(F)(F)F)n2)cc(OC)c1OC,AC50,[1],"3.16 µM [falling, full curve]"
Cc1c(Cl)cccc1NC(=O)CCn1c(=O)c2cccn2c2ccccc21,AC50,[1],"31.6 µM [falling, single point]"
c1ccc2c(c1)oc1c(NCc3ccc4c(c3)OCO4)ncnc12,AC50,[1],"15.8 µM [falling, partial curve]"
CC(CNC(=O)C1CCN(Cc2cc3ccccc3n2Cc2ccccc2)CC1)c1ccccc1 (centres undefined),AC50,[1],"25.1 µM [falling, partial curve]"
Cc1ccc2c(CC(=O)Nc3ccccc3C(F)(F)F)coc2c1C,AC50,[1],"3.16 µM [falling, partial curve]"
CCOc1ccccc1NC(=O)CSc1nccn1-c1ccc(Cl)cc1,AC50,[1],"3.16 µM [falling, partial curve]"
COc1cc2c(cc1OC)C(C)N(C(=O)Cn1ncc3c1-c1ccccc1OC3)CC2 (centres undefined),AC50,[1],"15.8 µM [falling, partial curve]"
CN1CCN(C(CNC(=O)C(=O)Nc2ccc(F)cc2F)c2ccc3c(c2)OCO3)CC1 (centres undefined),AC50,[1],"10 µM [falling, partial curve]"
COc1ccc2cc(CN(CC3COCCO3)S(=O)(=O)c3ccc(Cl)cc3)c(=O)[nH]c2c1 (centres undefined),AC50,[1],"0.126 µM [rising, full curve, poor fit]"
CC(C)Oc1ccc(CNS(=O)(=O)c2cnc(N)nc2)cc1,AC50,[1],"0.501 µM [rising, full curve, poor fit]"
O=C(CN1C(=O)C2(SCC(=O)N2c2ccccc2)c2ccccc21)NCc1ccccc1Cl (centres undefined),AC50,[1],"7.94 µM [falling, partial curve]"
O=C(NC1CCCCC1)c1ccc2c(c1)N(Cc1ccccc1)C(=O)c1ccccc1S2,AC50,[1],"12.6 µM [falling, partial curve, poor fit]"
CCCCNc1nc(Oc2ccc(=O)n(C)n2)nc(N(C)C)n1,AC50,[1],"12.6 µM [falling, single point]"
Cc1ccc(-c2nc(CS(=O)CC(=O)N3CCN(c4ccccc4)CC3)c(C)o2)cc1 (centres undefined),AC50,[1],"31.6 µM [falling, partial curve]"
CCN(CC)c1cc(C)c2cc(NC(=O)/C=C/c3ccc(C)cc3)ccc2n1,AC50,[1],"3.98 µM [falling, partial curve]"
O=[N+]([O-])c1cc(Cc2cc([N+](=O)[O-])c3cccnc3c2O)c(O)c2ncccc12,AC50,[2],"3.98 µM [rising, partial curve]"
same,AC50,[3],"3.98 µM [falling, single point]"
COc1ccc(Cl)cc1NC(=O)c1cc2c(s1)-c1ccccc1OC2,AC50,[1],"6.31 µM [falling, partial curve]"
CS(=O)(=O)N(CC(=O)NCCSc1ccccc1)c1cc(C(F)(F)F)ccc1Cl,AC50,[1],"39.8 µM [falling, single point]"
COc1ccc(OC)c(NC(=O)CSc2cn(CC(=O)N3CCOCC3)c3ccccc23)c1,AC50,[1],"39.8 µM [falling, single point]"
CC(=O)Nc1ccc(S(=O)(=O)Nc2cccc(-c3nc4cc(C)ccc4o3)c2)cc1,AC50,[1],"10 µM [falling, partial curve]"
O=C(CSc1nc2c(cnn2-c2ccc(F)cc2)c(=O)[nH]1)Nc1ccc(Br)cc1,AC50,[1],"0.01 µM [falling, full curve, poor fit]"
CC1CCN(C(=O)COC(=O)c2cc3ccccc3cc2O)CC1,AC50,[1],"31.6 µM [falling, single point]"
Cc1cccc(C)c1Nc1c(-c2ccc(Cl)s2)nc2ncccn12,AC50,[1],"25.1 µM [falling, single point]"
O=C(Nc1ccc(SC(F)F)cc1)c1cc(-c2ccc3c(c2)OCCO3)on1,AC50,[1],"0.631 µM [falling, full curve]"
Cc1noc(Cn2c(=O)c3cc4c(cc3n(CC(=O)Nc3cccc(Cl)c3)c2=O)OCO4)n1,AC50,[1],"15.8 µM [falling, single point]"
CCOc1ccc(CNC(=O)c2c(C)nn(-c3ccc(F)cc3)c2-n2cccc2)cc1,AC50,[1],"25.1 µM [falling, single point]"
CCOc1ccccc1NC(=O)C1CCN(S(=O)(=O)c2c(C)noc2/C=C/c2ccc(C)cc2)CC1,AC50,[1],"0.00631 µM [falling, full curve]"

# A portion taken from the entries so far, for reference:
compound,measurement,setting,value
Cc1c(C(=O)NCc2ccc(N(C)C)cc2)oc2c1-c1nn(Cc3cccc(Cl)c3)cc1CC2,AC50,[1],"15.8 µM [falling, partial curve]"
COc1ccc(-c2nc(-c3ccccc3)c(-c3ccccc3)[nH]2)cc1Br,AC50,[1],"3.16 µM [falling, full curve]"
Oc1c(I)cc(Cl)c2cccnc12,AC50,[1],"316 nM [rising, full curve, poor fit] [measured here: IkB-luc green channel]"
